No constants are given. Whether binding was seen depends on the method and setting. Binding seen in cells or lysates may run through a third protein. Some results given as binding are weak or reduced against the parent protein; the word gives no strength.

Protein sequences, listed by entry. Tags and fused reporters are not part of them. Lines headed by an entry give the natural chain unless they say otherwise; changes in a name come on top.
UniProt Q01094: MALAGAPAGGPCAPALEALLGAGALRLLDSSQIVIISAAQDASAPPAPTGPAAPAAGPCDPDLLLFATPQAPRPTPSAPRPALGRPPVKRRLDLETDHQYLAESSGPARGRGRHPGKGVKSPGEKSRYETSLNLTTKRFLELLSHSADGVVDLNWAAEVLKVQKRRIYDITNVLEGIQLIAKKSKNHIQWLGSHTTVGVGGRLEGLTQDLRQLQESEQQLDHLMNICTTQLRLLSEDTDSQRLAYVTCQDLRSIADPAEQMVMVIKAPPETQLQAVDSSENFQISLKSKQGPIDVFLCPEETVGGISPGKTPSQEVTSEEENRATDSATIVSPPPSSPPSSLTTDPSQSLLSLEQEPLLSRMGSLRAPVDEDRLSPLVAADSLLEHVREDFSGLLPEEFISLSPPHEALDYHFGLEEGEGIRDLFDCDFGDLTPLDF
UniProt P03372: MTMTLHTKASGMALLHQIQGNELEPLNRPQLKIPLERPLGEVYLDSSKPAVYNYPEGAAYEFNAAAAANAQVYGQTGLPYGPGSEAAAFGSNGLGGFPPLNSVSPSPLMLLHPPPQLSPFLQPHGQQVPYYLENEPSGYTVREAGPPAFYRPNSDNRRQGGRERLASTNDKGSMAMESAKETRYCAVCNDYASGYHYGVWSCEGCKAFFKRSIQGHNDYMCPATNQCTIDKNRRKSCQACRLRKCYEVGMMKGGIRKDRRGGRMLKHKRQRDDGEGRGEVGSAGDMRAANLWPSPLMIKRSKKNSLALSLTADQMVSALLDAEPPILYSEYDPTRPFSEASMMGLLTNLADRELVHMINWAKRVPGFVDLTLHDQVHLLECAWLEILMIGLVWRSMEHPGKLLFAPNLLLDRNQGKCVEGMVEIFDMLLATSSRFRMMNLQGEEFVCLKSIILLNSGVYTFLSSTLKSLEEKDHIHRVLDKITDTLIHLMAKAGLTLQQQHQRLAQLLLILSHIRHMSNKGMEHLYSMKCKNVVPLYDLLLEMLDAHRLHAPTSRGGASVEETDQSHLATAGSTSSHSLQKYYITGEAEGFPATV

Results on 1 substance are retold here after PMC3245278.

The test concerns the target E2F Transcription Factor 1 (human (endogenous in MCF7)) (UniProt Q01094). Put plainly: co-IP; endogenous proteins in MCF7 whole cell lysate (NENT buffer, protease inhibitors); 2 mg lysate with 6 µg anti-E2F1 or anti-ERα antibody or normal rabbit IgG overnight at 4°C, protein G/agarose, 3 washes with NENT buffer, western blot.

As for “Estrogen receptor alpha (from UniProt P03372 1-595)”, the binding entry is given as “binds”.
